Laboratory results reported in paper PMC5853475.

T1: RGL1-cYFP (Arabidopsis thaliana) (UniProt Q9C8Y3)
T1 sequence: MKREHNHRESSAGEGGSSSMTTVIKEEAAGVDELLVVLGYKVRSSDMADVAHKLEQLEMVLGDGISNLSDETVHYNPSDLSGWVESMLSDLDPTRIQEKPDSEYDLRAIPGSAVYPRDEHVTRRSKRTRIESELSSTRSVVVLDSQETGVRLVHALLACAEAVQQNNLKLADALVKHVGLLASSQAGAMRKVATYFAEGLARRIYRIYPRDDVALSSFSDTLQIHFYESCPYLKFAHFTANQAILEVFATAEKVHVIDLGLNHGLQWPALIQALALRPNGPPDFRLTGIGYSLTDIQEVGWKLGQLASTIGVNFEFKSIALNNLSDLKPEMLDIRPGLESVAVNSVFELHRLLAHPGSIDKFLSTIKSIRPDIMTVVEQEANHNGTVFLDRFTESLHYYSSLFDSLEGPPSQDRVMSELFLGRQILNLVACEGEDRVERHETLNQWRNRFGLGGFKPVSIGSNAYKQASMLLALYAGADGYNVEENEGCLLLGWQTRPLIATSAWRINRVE


Columns and labels:
[1] = target: T1, RGL1-cYFP (Arabidopsis thaliana); experiment: split reporter; BiFC; nYFP and cYFP fusions co-expressed by Agrobacterium infiltration in N. benthamiana leaf epidermal cells; 24 °C, observed after 48 h
[2] = target: cYFP (C-terminal fragment of yellow fluorescent protein, alone); experiment: as above

binding [1] | binding [2] | Molecule
no binding | – | nYFP (N-terminal fragment of yellow fluorescent protein, alone) (domain or fragment)
– | no binding | bHLH48-nYFP (protein, UniProt Q8VZ02 1-327) MDLTQGFRARSGVVGPVAGLESLNFSDEFRHLVTTMPPETTGGSFTALLEMPVTQAMELLHFPDSSSSQARTVTSGDISPTTLHPFGALTFPSNSLLLDRAARFSVIATEQNGNFSGETANSLPSNPGANLDRVKAEPAETDSMVENQNQSYSSGKRKEREKKVKSSTKKNKSSVESDKLPYVHVRARRGQATDNHSLAERARREKINARMKLLQELVPGCDKIQGTALVLDEIINHVQTLQRQVEMLSMRLAAVNPRIDFNLDSILASENGSLMDGSFNAESYHQLQQWPFDGYHQPEWGREEDHHQANFSMGSATLHPNQVKMEL
– | no binding | bHLH60-nYFP (protein, UniProt Q3EAI1 1-426) MDLTGGFGARSGGVGPCREPIGLESLHLGDEFRQLVTTLPPENPGGSFTALLELPPTQAVELLHFTDSSSSQQAAVTGIGGEIPPPLHSFGGTLAFPSNSVLMERAARFSVIATEQQNGNISGETPTSSVPSNSSANLDRVKTEPAETDSSQRLISDSAIENQIPCPNQNNRNGKRKDFEKKGKSSTKKNKSSEENEKLPYVHVRARRGQATDSHSLAERARREKINARMKLLQELVPGCDKGTDFGGKIKIKVCFGVHLLMISGKKVAIFLWKVSCEDLIDCSFSPPRIQGTALVLDEIINHVQSLQRQVEMLSMRLAAVNPRIDFNLDTILASENGSLMDGSFNAAPMQLAWPQQAIETEQSFHHRQLQQPPTQQWPFDGLNQPVWGREEDQAHGNDNSNLMAVSENVMVASANLHPNQVKMEL

These are yes or no findings as the source states them, for the method shown. In cells and extracts the contact can be indirect. Sequences can lack the tags named with a protein.
